Results are given in words; binding and its absence hold for the method and conditions named. In cells and extracts the contact can be indirect. For some assays here: Binding calls can cover weak binding; strength is not graded here. Where a sequence is shown, tags or fusion partners need not be part of it.
T1: LGI1-GFP (Leucine-rich Glioma Inactivated 1 fused to GFP) (human) (UniProt O95970)
T1 sequence: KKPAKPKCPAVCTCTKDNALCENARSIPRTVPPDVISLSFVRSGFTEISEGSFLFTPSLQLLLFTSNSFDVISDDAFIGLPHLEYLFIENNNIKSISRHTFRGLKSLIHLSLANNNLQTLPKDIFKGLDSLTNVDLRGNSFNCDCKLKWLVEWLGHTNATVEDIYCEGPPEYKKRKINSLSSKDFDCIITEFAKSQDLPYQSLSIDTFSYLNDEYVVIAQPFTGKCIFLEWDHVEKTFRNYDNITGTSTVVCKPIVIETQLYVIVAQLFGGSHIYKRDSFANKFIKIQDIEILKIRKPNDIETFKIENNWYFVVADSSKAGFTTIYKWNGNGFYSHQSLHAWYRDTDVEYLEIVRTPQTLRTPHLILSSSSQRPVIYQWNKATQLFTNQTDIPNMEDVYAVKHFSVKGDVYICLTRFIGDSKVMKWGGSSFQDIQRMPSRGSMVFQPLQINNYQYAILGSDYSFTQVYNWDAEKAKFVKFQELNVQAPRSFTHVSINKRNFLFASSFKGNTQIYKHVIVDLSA

Amino acid sequences for entries named in this document (tags omitted). A change or cut given only in a name is not applied to a line headed by its entry.
UniProt Q9P0K1: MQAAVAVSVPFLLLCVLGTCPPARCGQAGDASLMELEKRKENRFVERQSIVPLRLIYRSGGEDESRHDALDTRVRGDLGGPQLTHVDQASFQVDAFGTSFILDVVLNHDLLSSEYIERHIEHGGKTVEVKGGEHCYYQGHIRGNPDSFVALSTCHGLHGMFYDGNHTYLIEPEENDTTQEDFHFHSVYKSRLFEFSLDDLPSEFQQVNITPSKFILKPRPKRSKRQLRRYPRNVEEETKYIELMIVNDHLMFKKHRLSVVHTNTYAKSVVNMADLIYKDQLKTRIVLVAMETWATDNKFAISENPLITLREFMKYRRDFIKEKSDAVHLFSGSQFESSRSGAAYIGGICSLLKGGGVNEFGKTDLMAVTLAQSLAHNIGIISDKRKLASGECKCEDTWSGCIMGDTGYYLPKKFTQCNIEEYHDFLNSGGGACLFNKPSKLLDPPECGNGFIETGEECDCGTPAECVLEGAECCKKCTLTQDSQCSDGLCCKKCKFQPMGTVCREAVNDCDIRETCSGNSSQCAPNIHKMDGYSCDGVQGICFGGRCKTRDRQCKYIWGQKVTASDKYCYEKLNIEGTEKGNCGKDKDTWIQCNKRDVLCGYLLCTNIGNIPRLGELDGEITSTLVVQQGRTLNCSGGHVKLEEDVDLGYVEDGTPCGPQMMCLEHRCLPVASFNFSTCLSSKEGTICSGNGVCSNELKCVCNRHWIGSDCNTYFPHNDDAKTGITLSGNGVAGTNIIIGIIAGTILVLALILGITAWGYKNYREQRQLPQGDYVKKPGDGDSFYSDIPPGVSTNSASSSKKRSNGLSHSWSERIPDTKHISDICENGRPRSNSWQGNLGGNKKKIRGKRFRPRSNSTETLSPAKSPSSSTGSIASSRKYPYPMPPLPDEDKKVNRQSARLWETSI
UniProt O75077: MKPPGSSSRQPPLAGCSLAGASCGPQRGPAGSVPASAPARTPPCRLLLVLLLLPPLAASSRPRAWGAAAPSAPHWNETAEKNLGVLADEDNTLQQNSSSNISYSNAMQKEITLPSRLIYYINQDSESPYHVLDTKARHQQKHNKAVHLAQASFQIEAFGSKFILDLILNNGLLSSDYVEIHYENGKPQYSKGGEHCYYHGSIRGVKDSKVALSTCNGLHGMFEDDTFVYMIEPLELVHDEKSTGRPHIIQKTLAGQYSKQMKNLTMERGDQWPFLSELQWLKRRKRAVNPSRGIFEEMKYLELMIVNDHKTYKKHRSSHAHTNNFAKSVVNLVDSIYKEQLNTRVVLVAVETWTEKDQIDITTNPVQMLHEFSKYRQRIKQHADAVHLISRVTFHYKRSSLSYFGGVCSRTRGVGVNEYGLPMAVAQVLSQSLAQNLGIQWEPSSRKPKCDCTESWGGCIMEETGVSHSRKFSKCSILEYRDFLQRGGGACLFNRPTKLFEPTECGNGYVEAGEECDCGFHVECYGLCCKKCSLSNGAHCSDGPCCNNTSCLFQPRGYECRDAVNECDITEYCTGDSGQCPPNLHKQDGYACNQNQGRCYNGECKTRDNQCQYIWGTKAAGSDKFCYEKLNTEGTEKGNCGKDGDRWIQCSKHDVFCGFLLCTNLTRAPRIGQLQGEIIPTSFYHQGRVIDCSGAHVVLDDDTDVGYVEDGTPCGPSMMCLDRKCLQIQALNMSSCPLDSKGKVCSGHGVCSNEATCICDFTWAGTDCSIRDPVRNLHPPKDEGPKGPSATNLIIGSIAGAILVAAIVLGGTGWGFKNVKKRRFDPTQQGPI

T2: TAG-1-GFP (human) (UniProt Q02246)
T2 sequence: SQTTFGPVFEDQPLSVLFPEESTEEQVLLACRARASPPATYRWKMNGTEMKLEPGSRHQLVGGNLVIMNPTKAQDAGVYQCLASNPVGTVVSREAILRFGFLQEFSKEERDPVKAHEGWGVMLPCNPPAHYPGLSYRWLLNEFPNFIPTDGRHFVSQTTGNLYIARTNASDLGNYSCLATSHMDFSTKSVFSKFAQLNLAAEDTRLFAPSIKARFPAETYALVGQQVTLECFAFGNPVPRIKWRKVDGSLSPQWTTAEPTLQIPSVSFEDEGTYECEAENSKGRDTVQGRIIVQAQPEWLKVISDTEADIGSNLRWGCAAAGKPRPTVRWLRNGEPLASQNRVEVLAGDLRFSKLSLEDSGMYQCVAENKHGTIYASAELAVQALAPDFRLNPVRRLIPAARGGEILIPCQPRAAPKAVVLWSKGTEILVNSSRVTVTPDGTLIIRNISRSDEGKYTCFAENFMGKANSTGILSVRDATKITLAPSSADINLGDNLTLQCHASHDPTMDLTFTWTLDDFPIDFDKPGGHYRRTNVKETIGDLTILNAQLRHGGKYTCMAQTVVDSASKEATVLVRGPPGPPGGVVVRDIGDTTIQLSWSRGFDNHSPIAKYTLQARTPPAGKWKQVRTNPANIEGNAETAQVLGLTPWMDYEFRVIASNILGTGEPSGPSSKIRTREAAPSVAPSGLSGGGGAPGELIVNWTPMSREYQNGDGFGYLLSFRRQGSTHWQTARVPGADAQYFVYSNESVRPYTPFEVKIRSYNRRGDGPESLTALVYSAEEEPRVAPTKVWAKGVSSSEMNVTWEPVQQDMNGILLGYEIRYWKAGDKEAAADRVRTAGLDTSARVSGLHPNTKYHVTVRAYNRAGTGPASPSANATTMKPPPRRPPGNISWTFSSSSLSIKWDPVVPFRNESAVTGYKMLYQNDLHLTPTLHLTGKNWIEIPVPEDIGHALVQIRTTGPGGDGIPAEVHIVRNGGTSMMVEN

B1: Caspr2-HA (full-length) (protein, UniProt Q9UHC6 28-1331)
chain: APSTSQKCDEPLVSGLPHVAFSSSSSISGSYSPGYAKINKRGGAGGWSPSDSDHYQWLQVDFGNRKQISAIATQGRYSSSDWVTQYRMLYSDTGRNWKPYHQDGNIWAFPGNINSDGVVRHELQHPIIARYVRIVPLDWNGEGRIGLRIEVYGCSYWADVINFDGHVVLPYRFRNKKMKTLKDVIALNFKTSESEGVILHGEGQQGDYITLELKKAKLVLSLNLGSNQLGPIYGHTSVMTGSLLDDHHWHSVVIERQGRSINLTLDRSMQHFRTNGEFDYLDLDYEITFGGIPFSGKPSSSSRKNFKGCMESINYNGVNITDLARRKKLEPSNVGNLSFSCVEPYTVPVFFNATSYLEVPGRLNQDLFSVSFQFRTWNPNGLLVFSHFADNLGNVEIDLTESKVGVHINITQTKMSQIDISSGSGLNDGQWHEVRFLAKENFAILTIDGDEASAVRTNSPLQVKTGEKYFFGGFLNQMNNSSHSVLQPSFQGCMQLIQVDDQLVNLYEVAQRKPGSFANVSIDMCAIIDRCVPNHCEHGGKCSQTWDSFKCTCDETGYSGATCHNSIYEPSCEAYKHLGQTSNYYWIDPDGSGPLGPLKVYCNMTEDKVWTIVSHDLQMQTPVVGYNPEKYSVTQLVYSASMDQISAITDSAEYCEQYVSYFCKMSRLLNTPDGSPYTWWVGKANEKHYYWGGSGPGIQKCACGIERNCTDPKYYCNCDADYKQWRKDAGFLSYKDHLPVSQVVVGDTDRQGSEAKLSVGPLRCQGDRNYWNAASFPNPSSYLHFSTFQGETSADISFYFKTLTPWGVFLENMGKEDFIKLELKSATEVSFSFDVGNGPVEIVVRSPTPLNDDQWHRVTAERNVKQASLQVDRLPQQIRKAPTEGHTRLELYSQLFVGGAGGQQGFLGCIRSLRMNGVTLDLEERAKVTSGFISGCSGHCTSYGTNCENGGKCLERYHGYSCDCSNTAYDGTFCNKDVGAFFEEGMWLRYNFQAPATNARDSSSRVDNAPDQQNSHPDLAQEEIRFSFSTTKAPCILLYISSFTTDFLAVLVKPTGSLQIRYNLGGTREPYNIDVDHRNMANGQPHSVNITRHEKTIFLKLDHYPSVSYHLPSSSDTLFNSPKSLFLGKVIETGKIDQEIHKYNTPGFTGCLSRVQFNQIAPLKAALRQTNASAHVHIQGELVESNCGASPLTLSPMSSATDPWHLDHLDSASADFPYNPGQGQAIRNGVNRNSAIIGGVIAVVIFTILCTLVFLIRYMFRHKGTYHTNEAKGAESAESADAAIMNNDPNFTETIDESKKEWLI
B2: TAG-1-GFP (protein, UniProt Q02246 31-1012)
chain: T2 sequence
B3: Caspr2Δcyt-HA (Caspr2 deleted from its cytoplasmic tail) (domain or fragment, UniProt Q9UHC6 28-1284)
chain: APSTSQKCDEPLVSGLPHVAFSSSSSISGSYSPGYAKINKRGGAGGWSPSDSDHYQWLQVDFGNRKQISAIATQGRYSSSDWVTQYRMLYSDTGRNWKPYHQDGNIWAFPGNINSDGVVRHELQHPIIARYVRIVPLDWNGEGRIGLRIEVYGCSYWADVINFDGHVVLPYRFRNKKMKTLKDVIALNFKTSESEGVILHGEGQQGDYITLELKKAKLVLSLNLGSNQLGPIYGHTSVMTGSLLDDHHWHSVVIERQGRSINLTLDRSMQHFRTNGEFDYLDLDYEITFGGIPFSGKPSSSSRKNFKGCMESINYNGVNITDLARRKKLEPSNVGNLSFSCVEPYTVPVFFNATSYLEVPGRLNQDLFSVSFQFRTWNPNGLLVFSHFADNLGNVEIDLTESKVGVHINITQTKMSQIDISSGSGLNDGQWHEVRFLAKENFAILTIDGDEASAVRTNSPLQVKTGEKYFFGGFLNQMNNSSHSVLQPSFQGCMQLIQVDDQLVNLYEVAQRKPGSFANVSIDMCAIIDRCVPNHCEHGGKCSQTWDSFKCTCDETGYSGATCHNSIYEPSCEAYKHLGQTSNYYWIDPDGSGPLGPLKVYCNMTEDKVWTIVSHDLQMQTPVVGYNPEKYSVTQLVYSASMDQISAITDSAEYCEQYVSYFCKMSRLLNTPDGSPYTWWVGKANEKHYYWGGSGPGIQKCACGIERNCTDPKYYCNCDADYKQWRKDAGFLSYKDHLPVSQVVVGDTDRQGSEAKLSVGPLRCQGDRNYWNAASFPNPSSYLHFSTFQGETSADISFYFKTLTPWGVFLENMGKEDFIKLELKSATEVSFSFDVGNGPVEIVVRSPTPLNDDQWHRVTAERNVKQASLQVDRLPQQIRKAPTEGHTRLELYSQLFVGGAGGQQGFLGCIRSLRMNGVTLDLEERAKVTSGFISGCSGHCTSYGTNCENGGKCLERYHGYSCDCSNTAYDGTFCNKDVGAFFEEGMWLRYNFQAPATNARDSSSRVDNAPDQQNSHPDLAQEEIRFSFSTTKAPCILLYISSFTTDFLAVLVKPTGSLQIRYNLGGTREPYNIDVDHRNMANGQPHSVNITRHEKTIFLKLDHYPSVSYHLPSSSDTLFNSPKSLFLGKVIETGKIDQEIHKYNTPGFTGCLSRVQFNQIAPLKAALRQTNASAHVHIQGELVESNCGASPLTLSPMSSATDPWHLDHLDSASADFPYNPGQGQAIRNGVNRNSAIIGGVIAVVIFTILCTLVFLIR
B4: LGI1-GFP (Leucine-rich Glioma Inactivated 1 fused to GFP) (protein, UniProt O95970 35-557)
chain: T1 sequence

Experiments:
Test in all cases: co-IP
[1] = biological target: T1, LGI1-GFP (Leucine-rich Glioma Inactivated 1 fused to GFP) (human)
[2] = biological target: T2, TAG-1-GFP (human)
[3] = biological target: ADAM22-mCherry (human) (UniProt Q9P0K1)
[4] = biological target: ADAM23-mCherry (human) (UniProt O75077)

Molecule	binding [1]	binding [2]	binding [3]	binding [4]
ADAM23-mCherry (from UniProt O75077)	binds	no binding		
B1			binds	
B2			binds	no binding
B3			binds	binds
B4				binds

— article doi:10.1101/311365
